Test results: article PMC7819943, “Rice protein-binding microarrays: a tool to detect cis-acting elements near promoter regions in rice”
Some of the results follow.

The sequences below were run against T1, OsSMF1 (Oryza sativa, UniProt Q6ZLB0 1-436) (assay: protein-binding microarray (RPBM); PBS, 2% BSA, 51.3 ng/ul salmon testes DNA, 50 uM zinc acetate, 200 nM TF, 25 C, 1 h; high values mean tight binding). Settings: protein: recombinant; tags: N-terminal polyhistidine and DsRed monomer fusion (pET32a); chain copies: 2; label: CyDye5-dUTP incorporated in the synthesized complementary strand; 3' TTTTT single-stranded linker to array surface; dsDNA, one strand shown.
T1 sequence: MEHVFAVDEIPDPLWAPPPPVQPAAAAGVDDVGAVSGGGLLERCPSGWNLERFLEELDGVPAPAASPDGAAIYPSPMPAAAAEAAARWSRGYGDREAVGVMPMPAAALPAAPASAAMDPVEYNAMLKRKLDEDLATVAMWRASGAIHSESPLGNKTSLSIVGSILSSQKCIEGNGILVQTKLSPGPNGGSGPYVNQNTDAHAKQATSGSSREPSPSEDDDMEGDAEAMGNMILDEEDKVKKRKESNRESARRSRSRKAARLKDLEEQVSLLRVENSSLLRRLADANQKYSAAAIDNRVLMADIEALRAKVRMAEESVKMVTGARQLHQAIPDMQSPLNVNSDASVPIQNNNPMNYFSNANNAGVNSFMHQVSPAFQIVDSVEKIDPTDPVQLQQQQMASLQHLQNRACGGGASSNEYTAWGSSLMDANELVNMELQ
How it was run: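 Binding signal here means per-feature fluorescence intensity in arbitrary units. The values were read on an Axon 4000B scanner after a custom Agilent array, double-stranded by primer extension with Cy5-dUTP, was incubated with 200 nM protein at 25 °C for 1 h in PBS with 2% BSA, salmon testes DNA and 50 µM zinc acetate, then washed. The proteins were transcription factors with an N-terminal polyhistidine tag and DsRed, expressed in E. coli BL21-CodonPlus and purified on Ni–NTA.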

Sequence | binding signal
TCCTAGTTAGAGATAGTGACTTGGATAATCAATCCAGCGTCGGAGTCACCTAGTGCAG | 4860 fluorescence intensity (a.u.)
GGTGAAACTTGCTTTGCGTTTTCCCCATAAATAGCAACATCGGAGTCACCTAGTGCAG | 3350 fluorescence intensity (a.u.)
ATCGCGGGCACCGTGTTCTGACTCTGAGCTAGGGTTTCCTCGGAGTCACCTAGTGCAG | 3640 fluorescence intensity (a.u.)
ATTTGTCAGCACACCACGTATGCATGCCCTGCTTTATCTTCGGAGTCACCTAGTGCAG | 9630 fluorescence intensity (a.u.)
TCCATGCCGCTAAGTCGATGATGACTAGATAGGTTATCAGCGGAGTCACCTAGTGCAG | 3760 fluorescence intensity (a.u.)
TCAGCGCCGCAAGCTCCGGAATGACGGGGTGGTCTCTCGCCGGAGTCACCTAGTGCAG | 3450 fluorescence intensity (a.u.)
ATTTCTGGAATGGGAACTTACCACTTTGTTTCGTGTGAATCGGAGTCACCTAGTGCAG | 3380 fluorescence intensity (a.u.)
GGTCCCACATGTCATCATCTCTTATCCCTTCTTCCTCCTCCGGAGTCACCTAGTGCAG | 4560 fluorescence intensity (a.u.)
TTACCGCTGCCGCCACGGTGCCAACTGCCACGCCAACGCGCGGAGTCACCTAGTGCAG | 3790 fluorescence intensity (a.u.)
TTCTACAACTTGGACCATAAAACGTGTAGTTTTGTGAAATCGGAGTCACCTAGTGCAG | 3570 fluorescence intensity (a.u.)
GCACGGTTTCTAAATCTGAAATTCAGAATTGCAGGCGCTGCGGAGTCACCTAGTGCAG | 4070 fluorescence intensity (a.u.)
CTTCTTGTTGTTGAGTGATGACCACGATATCGAATCGTACCGGAGTCACCTAGTGCAG | 3860 fluorescence intensity (a.u.)
GGGATGTCAAGTTTTCACACGGAGAGGAATGAAATTCGCGCGGAGTCACCTAGTGCAG | 14000 fluorescence intensity (a.u.)
GGTGGGTGTTTTAATGTGACATGATATTTGTGGTTGGGTTCGGAGTCACCTAGTGCAG | 3790 fluorescence intensity (a.u.)
CTCCGGTTGGCAGCGCCCGCGGCCACCGCCACTAACTACGCGGAGTCACCTAGTGCAG | 21700 fluorescence intensity (a.u.)
AATATTGACGTACCATATAAATATAGGCTAACCCTTTATACGGAGTCACCTAGTGCAG | 4060 fluorescence intensity (a.u.)
TCCTTCCTCCTGCGTTTGCGTGACGAGGAACGAAAGCATCCGGAGTCACCTAGTGCAG | 4980 fluorescence intensity (a.u.)
CAAAGCGGTGAACGGCGGCACATGGACACGCACGCGGTTGCGGAGTCACCTAGTGCAG | 4650 fluorescence intensity (a.u.)
GAAGATGACATATGTTTGCACGATGTCATGGAGGTCGCTCCGGAGTCACCTAGTGCAG | 4260 fluorescence intensity (a.u.)
TCCATTTATTACCGTCATCTTATATAATCTTCAATTAGACCGGAGTCACCTAGTGCAG | 3790 fluorescence intensity (a.u.)
GCTGTTCACTATGCTAGATCCTCACACCTTTGATGACATACGGAGTCACCTAGTGCAG | 31600 fluorescence intensity (a.u.)
TCAGGTGGGTCGAGCCATGGTGTATGTTGACGTGCCAAATCGGAGTCACCTAGTGCAG | 18100 fluorescence intensity (a.u.)
ATCTTTTCTAGTACCAGGATCTTGTGTTGGTGATAGAGAGCGGAGTCACCTAGTGCAG | 42500 fluorescence intensity (a.u.)
GTGGTGTGTGTTTACATGTAAGATTAGACAGTTGCCAAGCCGGAGTCACCTAGTGCAG | 3170 fluorescence intensity (a.u.)
AAATATTAATGCTTGCAGTGTCATAATTGCAAATCCCCTTCGGAGTCACCTAGTGCAG | 4600 fluorescence intensity (a.u.)
GAGACCCGCGCTCGACCTCCTCCCAGGTTCTACCCTTCTACGGAGTCACCTAGTGCAG | 18600 fluorescence intensity (a.u.)
AGATCAAAATCAGGTATTCAGGTGAGGCTTCCAGATATCCCGGAGTCACCTAGTGCAG | 3540 fluorescence intensity (a.u.)

Pulled one by one from the list above (three):
Sequence | binding signal
GCTGTTCACTATGCTAGATCCTCACACCTTTGATGACATACGGAGTCACCTAGTGCAG | 31600 fluorescence intensity (a.u.)
ATCGCGGGCACCGTGTTCTGACTCTGAGCTAGGGTTTCCTCGGAGTCACCTAGTGCAG | 3640 fluorescence intensity (a.u.)
GGTGAAACTTGCTTTGCGTTTTCCCCATAAATAGCAACATCGGAGTCACCTAGTGCAG | 3350 fluorescence intensity (a.u.)

Next part.

Sequence | binding signal
AAGACATGTATCCGCCCGTATATCCCATATTATAAAATATCGGAGTCACCTAGTGCAG | 3250 fluorescence intensity (a.u.)
ATATATAGAAATTTCTTAGATACTTTTCAAAATCCATCTTCGGAGTCACCTAGTGCAG | 21700 fluorescence intensity (a.u.)
AAACGACATCTGATGGAGATGTGTTCCATATCAAAGTTGTCGGAGTCACCTAGTGCAG | 25000 fluorescence intensity (a.u.)
TGCCGGAGCGATTCTATGGGCGCCCATTGTAAGTTGTAACCGGAGTCACCTAGTGCAG | 3930 fluorescence intensity (a.u.)
GGCCCACCCTACCGACATTCAATGGCGCCACGTCAGACAACGGAGTCACCTAGTGCAG | 27500 fluorescence intensity (a.u.)
CTTGAATCCGGTGGTGTTGTGCTCAGCTCGGGCATGAGGGCGGAGTCACCTAGTGCAG | 3480 fluorescence intensity (a.u.)
CCATGTTCCCAACCCCTCTCCCTCATTTTCCACGCGTATGCGGAGTCACCTAGTGCAG | 3650 fluorescence intensity (a.u.)
GTAGCCCTCGTCGTCATTCTTATCCTCCTACTTCCGTTACCGGAGTCACCTAGTGCAG | 3670 fluorescence intensity (a.u.)
TGTTGTCCACCTCCTTCGACATGAAAATTTGATGACATCACGGAGTCACCTAGTGCAG | 4040 fluorescence intensity (a.u.)
CACTGGTCAACAGGTTGATGACTGTTTGACCGGATTTTGTCGGAGTCACCTAGTGCAG | 3540 fluorescence intensity (a.u.)
TCCTTCCTCTTCCCTTTGTCGCCTACGCGAACCTGGTGCGCGGAGTCACCTAGTGCAG | 3430 fluorescence intensity (a.u.)
CACAGTGCCCCTTGCTAAACGACGGGATCACGGGACTTGGCGGAGTCACCTAGTGCAG | 33300 fluorescence intensity (a.u.)
AAGGATGTGCCGGTTGGGAACTCGGTGCTTGTGATGTATGCGGAGTCACCTAGTGCAG | 3170 fluorescence intensity (a.u.)
CGAGGCTCTAGCTAGCTAGGACTCCACAGGAGGAGGAGGACGGAGTCACCTAGTGCAG | 34600 fluorescence intensity (a.u.)
AGTGGCTTGCAAGAGGAGATGGAGAGGAAGCTGTATGAGCCGGAGTCACCTAGTGCAG | 24100 fluorescence intensity (a.u.)
CGGCCGGAGCAGCGGCGCGCTGAACGGCGGCAATCCGCCGCGGAGTCACCTAGTGCAG | 3170 fluorescence intensity (a.u.)
AGACTTTATGATGTTTGTAAGACGTGGATCTGTATGTCAACGGAGTCACCTAGTGCAG | 4910 fluorescence intensity (a.u.)
CGATACCATTAACAATGTCAGCAGGTCTATTGTTTGGTAGCGGAGTCACCTAGTGCAG | 4020 fluorescence intensity (a.u.)
CCAAGGTAAGATGAAGCAGCAGCATTTGCATTAAACTATCCGGAGTCACCTAGTGCAG | 60100 fluorescence intensity (a.u.)
CGTGATCTCGTCGGTCTCGTCACGCACGCCCGCTCCGCTCCGGAGTCACCTAGTGCAG | 3290 fluorescence intensity (a.u.)
GCCTGCCCAGATTCGTTGTACTATGAAATGTCACATCCTACGGAGTCACCTAGTGCAG | 3160 fluorescence intensity (a.u.)
AAGAGGAATTAATGCAGGATTGCCTGTCCTGTCATCCTAGCGGAGTCACCTAGTGCAG | 4780 fluorescence intensity (a.u.)
GACTTCGCGGGACGAATATTCATCGTCACGGTTGGTGTTCCGGAGTCACCTAGTGCAG | 3170 fluorescence intensity (a.u.)
ATCGAGCTATCATGTAAGTGTCACGTCAATGTGACGTGGGCGGAGTCACCTAGTGCAG | 20700 fluorescence intensity (a.u.)
TCGGAGACCACCTCCACCTCCACCTCCTCCACCACCTTCGCGGAGTCACCTAGTGCAG | 3910 fluorescence intensity (a.u.)
TGGGAAACAGGACTCTGTTTTCTCTTGCTCTTGTACCAAACGGAGTCACCTAGTGCAG | 3190 fluorescence intensity (a.u.)
AAGGAGTTGTACCTCCCAATCCTATCTGCCAAATCATCCCCGGAGTCACCTAGTGCAG | 3740 fluorescence intensity (a.u.)
